# This is one part of the list. Further columns of the screen follow, without active or inactive calls. The list favours compounds with an active or inconclusive main result. The note in brackets gives the kind of curve behind each potency; many fits are weak.
# Test: qHTS Assay to Find Inhibitors of Chronic Active B-Cell Receptor Signaling
# Details: ABC-DLBCL IkBa-CBG/CBR reporter, luminescence ratio (green luciferase fused to IkBa over red control in TMD8 lymphoma cells), 4 h
# Procedure, shortened: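 Doxycycline induced both beetle luciferases in TMD8 lymphoma cells; IKK-driven degradation limits the IkappaBalpha-fused green signal, while red luminescence normalises for cell number and nonspecific effects. Compounds tested up to 46 uM, 4 hrs.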
# [1] = measured here: CBR red luminescence, cell number
# [2] = measured here: IkBa-CBG green luminescence
SMILES,AC50 [1],AC50 [2]
COc1cccc(C(=O)Nc2ccc3nc4n(c(=O)c3c2)CCCC4)c1,"7.94 µM [falling, partial curve]",–
CC(=O)O[C@H]1CC(C)(C)C(=C=C/C(C)=C/C=C/C(C)=C/C=C/C=C(C)/C=C/C=C(\C)C(=O)C[C@@]23O[C@]2(C)C[C@@H](O)CC3(C)C)[C@](C)(O)C1,"0.708 µM [rising, full curve, poor fit]",–
CCC(=O)c1ccc(OCc2ccccc2)c(OC)c1,–,"29.1 µM [falling, partial curve, poor fit]"
Cn1c(CCN2CCCC2)nc2cc(NS(=O)(=O)c3ccccc3)ccc21,"15.8 µM [falling, single point]",–
CCCCN(C(=O)c1ccc2c(c1)NC(=O)CS2)c1ccccc1,"11.6 µM [falling, partial curve]",–
CCc1ccc(C(=O)c2oc3nc(C)cc(C)c3c2N)cc1,"0.562 µM [rising, partial curve, poor fit]",–
Cc1cccc(Nc2c(-c3ccc(N4CCOCC4)cc3)nc3ncccn23)c1,"29.1 µM [rising, single point]",–
O=C(CSc1nc(=O)n(Cc2ccccn2)c2c1CCC2)Nc1ccc(F)cc1F,"18.4 µM [falling, single point]",–
COc1cc(C)ccc1OCC(=O)Nc1ccccc1N1CCOCC1,"4.11 µM [rising, partial curve]",–
Cc1cc(-c2cccs2)n[nH]1,"25.9 µM [rising, single point]",–
CCN(CC)S(=O)(=O)c1cccc(-n2c(O)c(C=Nc3ccccc3C(=O)O)c3ccccc3c2=O)c1,"0.316 µM [falling, full curve, poor fit]",–
O=C(O)c1cccc(N/N=C/c2ccc(-c3ccccc3)cc2)c1,"8.91 µM [falling, partial curve, poor fit]",–
CC(C)CCNC(=O)COc1cccc2c1OC(C)(C)C2,"35.5 µM [rising, single point]",–
O=C(NNc1nc2c(F)cccc2s1)c1cc(=O)c2ccccc2o1,"4.47 µM [falling, partial curve]",–
Cc1ccc(NC(=O)N2CCc3ccccc32)cc1,"9.2 µM [falling, partial curve]",–
CCOC(=O)c1cc2sc(C)cc2n1CC(=O)NCCc1ccccc1,"0.164 µM [rising, full curve, poor fit]",–
COCCNC(=S)N/N=C(\C)c1cccc(OC)c1,"35.5 µM [falling, single point]","35.5 µM [falling, single point]"
CCC1(C)Cc2c(sc3nnn(CC(=O)Nc4cccc5ccccc45)c(=O)c23)CO1 (stereo unspecified),"28.2 µM [falling, single point]",–
CC(=O)NS(=O)(=O)c1cccnc1Nc1cccc(Cl)c1,"29.1 µM [rising, single point]",–
COC(=O)c1ccc(N/N=C/c2cc([N+](=O)[O-])cc(OC)c2O)cc1,"11.2 µM [falling, partial curve]",–
CCOC(=O)C1CCN(C(=O)C(CCSC)NC(=O)c2ccccc2OC)CC1 (stereo unspecified),"3.26 µM [rising, full curve, poor fit]",–

SMILES,AC50 [1],AC50 [2]
Oc1ccc(Br)cc1C1Nc2ccccc2S1 (stereo unspecified),"2.24 µM [rising, full curve, poor fit]",–
CCN1CCN(CC(=O)Nc2ccc(OC(F)(F)F)cc2)CC1,"0.891 µM [rising, full curve, poor fit]",–
c1ccc(CSc2snnc2-c2ccccc2)cc1,"1.16 µM [rising, full curve, poor fit]",–
COc1cccc2cc3c(=O)n(-c4ccccc4)nc-3oc12,"0.291 µM [falling, full curve]",–
COC(=O)c1sccc1NC(=O)Cc1ccc(OC)c(OC)c1,"7.31 µM [falling, partial curve]",–
CCOC(=O)c1c(NCc2ccc3c(c2)OCO3)c2ccccc2[nH]c1=O,"11.6 µM [falling, single point]",–
Cc1nc(C)c(C(=O)Nc2nc3c(C)cccc3s2)o1,"12.6 µM [falling, partial curve, poor fit]",–
CCC(/C=N/NC(=O)c1ccccc1F)CC,"15.8 µM [falling, partial curve, poor fit]",–
COc1ccccc1C(=O)NCCC(=O)NCC(c1ccc(F)cc1)N1CCOCC1 (stereo unspecified),"25.9 µM [falling, single point]",–
Cc1ccc(C2(C)NC(=O)N(CC(=O)Nc3ccc(-c4nc5ccc(C)cc5s4)cc3)C2=O)cc1 (stereo unspecified),"3.98 µM [rising, partial curve, poor fit]",–
CCOc1ccc(N(CC(=O)Nc2ccccc2OCC)S(=O)(=O)c2c(C)noc2C)cc1,"4.47 µM [rising, full curve]","6.31 µM [falling, full curve]"
COc1cccc2c1OC1(C)CC2NC(=O)N1c1cccc(C(=O)Nc2ccc3c(c2)OCCO3)c1 (stereo unspecified),"5.8 µM [falling, partial curve, poor fit]",–
Cc1ccc(Cl)cc1NC(=O)c1cnn2c1NC(c1ccco1)CC2C(F)(F)F (stereo unspecified),"1.3 µM [falling, full curve, poor fit]",–
CCNc1nc(SC(C)C(=O)OC)nc(N2CCOCC2)n1 (stereo unspecified),"35.5 µM [rising, single point]",–
O=C(CN(Cc1ccc(Br)cc1)S(=O)(=O)c1ccccc1)NCc1cccnc1,"20 µM [falling, partial curve, poor fit]",–
CCc1nc(SCC(=O)N2CC(=O)Nc3ccccc32)c2c(C)c(C)sc2n1,"14.1 µM [rising, single point]",–
O=C(O)c1ccc(/C=C2\SC(=S)N(Nc3ccccc3)C2=O)cc1,"11.2 µM [falling, partial curve, poor fit]",–
COc1cc(/C=C(\CC(=O)O)c2nc3ccccc3s2)cc(OC)c1O,"35.5 µM [rising, single point]",–
O=C(Nc1nccs1)c1ccc(Br)c(S(=O)(=O)N2CCCC2)c1,"7.94 µM [falling, partial curve, poor fit]",–
COC(=O)CSc1nc(N)nc(C)c1Cl,"15.8 µM [rising, partial curve, poor fit]",–
O=C(Cc1cccs1)Nc1nnc(Cc2ccccc2)s1,"18.4 µM [rising, partial curve]",–

SMILES,AC50 [1],AC50 [2]
O=[N+]([O-])c1cnccc1NC1CCCCC1,"12.6 µM [rising, partial curve, poor fit]",–
N#C/C(=C/c1ccc(Sc2nc3ccccc3[nH]2)o1)c1ccccc1F,"32.6 µM [falling, single point]",–
COc1ccc(C2Nc3ccccc3-c3cc(C)nn32)c(OC)c1 (stereo unspecified),"35.5 µM [falling, single point]",–
COc1ccc2oc(=Nc3ccccc3)c(-c3nc4ccccc4[nH]3)cc2c1,"32.6 µM [falling, single point]",–
O=C(N/N=C/c1ccccn1)c1cc(-c2ccc(Cl)cc2)nc2ccccc12,"16.4 µM [rising, single point]","25.9 µM [falling, single point]"
COc1cccc(NC(=O)c2cnc(SC)nc2C)c1,"10 µM [falling, partial curve, poor fit]",–
Cc1ccc(NC(=O)c2ccc(Cn3cc(Br)cn3)o2)cc1,"1.84 µM [rising, partial curve, poor fit]",–
COc1ccc(-c2csc(NC(=S)NC(=O)c3ccc(S(=O)(=O)N(C)C)cc3)n2)cc1OC,"3.98 µM [rising, partial curve, poor fit]",–
COc1ccc(C)cc1NC(=O)c1cc2cc3ccc(C)cc3nc2o1,"1 µM [falling, partial curve, poor fit]",–
O=C(Nc1nnc(C2=COCCO2)o1)c1ccc(Cl)cc1,"20.6 µM [falling, partial curve, poor fit]",–
COc1ccc(-c2sc3ccc(OC)cc3c2C#CCCO)cc1,"31.6 µM [rising, single point]",–
O=C(Nc1cccc(O)c1)c1c(O)c2ccccc2[nH]c1=O,"35.5 µM [falling, single point]",–
COc1ccccc1NC(=O)C(=O)NNS(=O)(=O)c1ccc2ccccc2c1,"7.94 µM [falling, partial curve]",–
CCOC(=O)C(C)N1C(=O)S/C(=C/c2ccc3c(c2)n(C)c(=O)n3C)C1=O (stereo unspecified),"11.2 µM [rising, partial curve]","12.6 µM [falling, partial curve]"
CCOC(=O)CN(C(=O)CSc1nnc(-c2cccc(OC)c2)o1)c1ccc(F)cc1,"15.8 µM [falling, partial curve]",–
Cc1nn(-c2ccccn2)c2c1C(c1c(F)cccc1Cl)C1=C(N2)c2ccccc2C1=O (stereo unspecified),"1.84 µM [rising, partial curve]",–
COc1ccc(NC(=O)c2cc([N+](=O)[O-])ccc2NC(=O)CNCc2ccccn2)c(OC)c1,"11.2 µM [falling, single point]",–
COc1ccc(NC(=O)/C(C#N)=C/c2ccc3c(c2)n(C)c(=O)n3C)cc1,"10.3 µM [rising, partial curve]",–
O=C(Nc1nc(-c2ccc(Oc3ccccc3)cc2)cs1)C1=COCCO1,"10.3 µM [rising, partial curve, poor fit]",–
COc1ccc(C2=CCN3CCCCC3C2)c(-c2ccc(OC)c(OC)c2)c1 (stereo unspecified),"29.1 µM [rising, single point]",–

# Part of the list above, as tab-separated lines:
SMILES	AC50 [1]	AC50 [2]
COc1ccccc1NC(=O)C(=O)NNS(=O)(=O)c1ccc2ccccc2c1	7.94 µM [falling, partial curve]	–
CCOC(=O)C(C)N1C(=O)S/C(=C/c2ccc3c(c2)n(C)c(=O)n3C)C1=O (stereo unspecified)	11.2 µM [rising, partial curve]	12.6 µM [falling, partial curve]
